≈ marks a conversion by molar mass, not a printed value.
Columns and labels:
[1] = tested on: E. coli; assay: Broth microdilution MIC, E. coli; type: cell-based; conditions: Escherichia coli, 24 h, read-out: MIC, Bacteria, E. coli
Procedure, shortened: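 Broth microdilution per CLSI M7-A7 in Mueller Hinton broth. About […] E. coli was exposed to serial test-compound dilutions for 24 h at 37°C. MIC was the lowest concentration suppressing visible growth. Ampicillin was used to monitor susceptibility.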

[2] = tested on: E. coli strains containing pET30a-eclrs; assay: MIC upon overexpression of EcLeuRS; type: cell-based; conditions: Escherichia coli, read-out: MIC when EcLeuRS was overexpressed
Procedure, shortened: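 E. coli transformants carrying pET30a-eclrs, with the empty pET30a vector strain as control. Both were induced with 10 μM IPTG and tested by broth microdilution in Mueller Hinton broth (37°C, 24 h). MICs were read as the lowest concentration without visible growth and compared between the two strains.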

Work on `CC1(C)S[C@@H]2[C@H](NC(=O)[C@H](N)c3ccccc3)C(=O)N2[C@H]1C(=O)O` [Ampicillin, reference compound] yielded an MIC [1] of 4 µg/mL (≈ 11.4 µM) and an MIC [2] of 4 µg/mL (≈ 11.4 µM).

Source: PMC3747510 (Scientific Reports, 2013)
